Source: paper PMC8783677
These are yes or no findings as the source states them, for the method shown. Binding seen in cells or lysates may run through a third protein. Some entries that bind do so weakly or less than the wild type. For some assays here: Tags and fused reporters may be left off the sequences shown. Values belong to the molecule of their own block, whether it stands above or below them.

By UniProt entry, the sequences of proteins in these tests, tags left out.
UniProt Q06187: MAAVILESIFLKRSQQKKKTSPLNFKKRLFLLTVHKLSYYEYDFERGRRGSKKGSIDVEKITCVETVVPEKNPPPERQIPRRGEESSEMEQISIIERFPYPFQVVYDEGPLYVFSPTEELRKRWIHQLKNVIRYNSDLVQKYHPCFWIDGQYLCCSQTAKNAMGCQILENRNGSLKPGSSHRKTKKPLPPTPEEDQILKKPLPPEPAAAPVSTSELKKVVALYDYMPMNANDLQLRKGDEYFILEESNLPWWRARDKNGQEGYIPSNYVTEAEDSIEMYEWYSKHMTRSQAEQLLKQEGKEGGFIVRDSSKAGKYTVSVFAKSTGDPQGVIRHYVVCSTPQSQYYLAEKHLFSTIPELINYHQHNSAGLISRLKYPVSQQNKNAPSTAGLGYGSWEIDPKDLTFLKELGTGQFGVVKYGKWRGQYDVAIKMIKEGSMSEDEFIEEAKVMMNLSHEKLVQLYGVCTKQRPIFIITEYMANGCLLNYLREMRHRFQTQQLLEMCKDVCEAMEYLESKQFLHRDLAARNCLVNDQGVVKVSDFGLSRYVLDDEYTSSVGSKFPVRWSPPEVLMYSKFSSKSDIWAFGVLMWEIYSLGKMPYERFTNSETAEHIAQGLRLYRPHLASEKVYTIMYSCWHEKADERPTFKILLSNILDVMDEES
UniProt O60828: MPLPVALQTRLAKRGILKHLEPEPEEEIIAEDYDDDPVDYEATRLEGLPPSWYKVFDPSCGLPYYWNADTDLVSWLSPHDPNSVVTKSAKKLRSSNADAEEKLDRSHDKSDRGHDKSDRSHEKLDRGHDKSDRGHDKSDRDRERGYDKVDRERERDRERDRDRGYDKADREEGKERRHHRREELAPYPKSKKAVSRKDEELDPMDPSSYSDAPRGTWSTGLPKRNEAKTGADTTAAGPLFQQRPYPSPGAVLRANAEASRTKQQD

How the values were obtained:
[1] = biological target: T1, FLAG-CPVL (carboxypeptidase, vitellogenic-like) (human) (UniProt Q9H3G5); assay: co-IP; whole-cell lysates of U251 cells transfected with FLAG-vector or FLAG-CPVL; IP with anti-FLAG antibody, immunoblot with antibodies against the indicated proteins
T1 sequence: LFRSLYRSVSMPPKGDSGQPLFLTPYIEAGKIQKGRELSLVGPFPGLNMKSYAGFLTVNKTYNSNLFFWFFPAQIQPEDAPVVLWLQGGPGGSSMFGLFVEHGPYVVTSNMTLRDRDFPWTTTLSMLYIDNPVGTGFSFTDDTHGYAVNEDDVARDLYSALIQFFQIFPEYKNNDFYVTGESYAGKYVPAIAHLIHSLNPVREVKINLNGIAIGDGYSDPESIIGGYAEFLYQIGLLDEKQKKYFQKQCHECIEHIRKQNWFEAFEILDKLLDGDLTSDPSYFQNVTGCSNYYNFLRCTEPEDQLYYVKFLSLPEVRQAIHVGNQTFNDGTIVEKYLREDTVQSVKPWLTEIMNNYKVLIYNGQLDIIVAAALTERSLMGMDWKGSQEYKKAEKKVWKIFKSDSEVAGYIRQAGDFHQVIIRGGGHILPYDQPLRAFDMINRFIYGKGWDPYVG

GST-fused CPVL (human) = biological target: T2, GST-fused CPVL (human) (UniProt Q9H3G5); assay: pull-down; about 10 ug GST fusion protein (from crude E. coli BL21 lysate) mixed with 5-8 uL in vitro transcribed/translated product in 0.8% BSA in PBS; glutathione-Sepharose beads, 4 C, 2 hours; 5 washes; Western blot
T2 sequence: T1 sequence

GST-fused BTK = GST-fused BTK (UniProt Q06187); assay: as above

Molecule: in vitro transcribed/translated BTK (from UniProt Q06187 1-659) (enzyme)
- binding (GST-fused CPVL (human)): binds

B1: in vitro transcribed/translated CPVL (protein, UniProt Q9H3G5 1-476)
chain: MVGAMWKVIVSLVLLMPGPCDGLFRSLYRSVSMPPKGDSGQPLFLTPYIEAGKIQKGRELSLVGPFPGLNMKSYAGFLTVNKTYNSNLFFWFFPAQIQPEDAPVVLWLQGGPGGSSMFGLFVEHGPYVVTSNMTLRDRDFPWTTTLSMLYIDNPVGTGFSFTDDTHGYAVNEDDVARDLYSALIQFFQIFPEYKNNDFYVTGESYAGKYVPAIAHLIHSLNPVREVKINLNGIAIGDGYSDPESIIGGYAEFLYQIGLLDEKQKKYFQKQCHECIEHIRKQNWFEAFEILDKLLDGDLTSDPSYFQNVTGCSNYYNFLRCTEPEDQLYYVKFLSLPEVRQAIHVGNQTFNDGTIVEKYLREDTVQSVKPWLTEIMNNYKVLIYNGQLDIIVAAALTERSLMGMDWKGSQEYKKAEKKVWKIFKSDSEVAGYIRQAGDFHQVIIRGGGHILPYDQPLRAFDMINRFIYGKGWDPYVG
- binding (GST-fused BTK): binds

B2: MICA (protein, UniProt Q29983 24-383)
chain: EPHSLRYNLTVLSWDGSVQSGFLTEVHLDGQPFLRCDRQKCRAKPQGQWAEDVLGNKTWDRETRDLTGNGKDLRMTLAHIKDQKEGLHSLQEIRVCEIHEDNSTRSSQHFYYDGELFLSQNLETKEWTMPQSSRAQTLAMNVRNFLKEDAMKTKTHYHAMHADCLQELRRYLKSGVVLRRTVPPMVNVTRSEASEGNITVTCRASGFYPWNITLSWRQDGVSLSHDTQQWGDVLPDGNGTYQTWVATRICQGEEQRFTCYMEHSGNHSTHPVPSGKVLVLQSHWQTFHVSAVAAAAIFVIIIFYVRCCKKKTSAAEGPELVSLQVLDQHPVGTSDHRDATQLGFQPLMSDLGSTGSTEGA
- binding [1]: binds

Second part, the molecule after the results:

- binding [1]: binds
Molecule: Bruton's tyrosine kinase (BTK) (from UniProt Q06187 1-659) (enzyme)

- binding [1]: binds
Molecule: PQBP1 (from UniProt O60828 1-265)
